Data published in doi:10.1101/794842.
Where two headings read alike, the source gives them in different places. No constants are given. Whether binding was seen depends on the method and setting. Some binding calls cover weakened binding; strength is not graded here.

The chains behind the UniProt entries cited, without tags or fusion partners. Residues count along the entry.
UniProt Q9Y2L5, residues 1002-1063: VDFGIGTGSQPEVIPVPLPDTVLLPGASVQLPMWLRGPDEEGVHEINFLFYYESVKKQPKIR

Columns and labels:
Assay in all cases: two-hybrid
[1] = target: T1, C terminus of human TMEM131 (yeast two-hybrid bait) (human) (UniProt Q92545)
T1 sequence: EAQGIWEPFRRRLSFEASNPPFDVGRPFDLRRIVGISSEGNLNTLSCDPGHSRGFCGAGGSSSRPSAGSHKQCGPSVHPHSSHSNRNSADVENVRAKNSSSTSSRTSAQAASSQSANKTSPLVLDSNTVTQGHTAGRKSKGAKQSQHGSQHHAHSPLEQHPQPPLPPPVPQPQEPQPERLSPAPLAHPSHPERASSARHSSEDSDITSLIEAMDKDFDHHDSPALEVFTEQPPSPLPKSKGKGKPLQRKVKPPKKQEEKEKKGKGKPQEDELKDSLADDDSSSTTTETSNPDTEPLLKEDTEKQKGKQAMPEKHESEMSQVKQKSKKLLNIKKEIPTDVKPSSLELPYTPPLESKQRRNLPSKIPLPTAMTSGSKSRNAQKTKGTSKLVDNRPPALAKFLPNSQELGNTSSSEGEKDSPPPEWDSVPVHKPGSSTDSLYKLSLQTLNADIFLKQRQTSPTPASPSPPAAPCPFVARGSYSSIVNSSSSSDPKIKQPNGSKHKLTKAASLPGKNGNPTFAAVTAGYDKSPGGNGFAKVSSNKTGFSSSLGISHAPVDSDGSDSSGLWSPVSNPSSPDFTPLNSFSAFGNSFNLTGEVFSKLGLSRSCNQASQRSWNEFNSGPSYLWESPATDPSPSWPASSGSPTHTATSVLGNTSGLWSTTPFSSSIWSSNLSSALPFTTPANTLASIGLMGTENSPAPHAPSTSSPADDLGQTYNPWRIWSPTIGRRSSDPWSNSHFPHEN

[2] = target: T1, C terminus of human TMEM131 (yeast two-hybrid bait) (human); remark: listed apart in the source
[3] = target: T2, TMEM131 Ct with the very C-terminal end deleted (1741-1883 a.a.) (human) (UniProt Q92545)
T2 sequence: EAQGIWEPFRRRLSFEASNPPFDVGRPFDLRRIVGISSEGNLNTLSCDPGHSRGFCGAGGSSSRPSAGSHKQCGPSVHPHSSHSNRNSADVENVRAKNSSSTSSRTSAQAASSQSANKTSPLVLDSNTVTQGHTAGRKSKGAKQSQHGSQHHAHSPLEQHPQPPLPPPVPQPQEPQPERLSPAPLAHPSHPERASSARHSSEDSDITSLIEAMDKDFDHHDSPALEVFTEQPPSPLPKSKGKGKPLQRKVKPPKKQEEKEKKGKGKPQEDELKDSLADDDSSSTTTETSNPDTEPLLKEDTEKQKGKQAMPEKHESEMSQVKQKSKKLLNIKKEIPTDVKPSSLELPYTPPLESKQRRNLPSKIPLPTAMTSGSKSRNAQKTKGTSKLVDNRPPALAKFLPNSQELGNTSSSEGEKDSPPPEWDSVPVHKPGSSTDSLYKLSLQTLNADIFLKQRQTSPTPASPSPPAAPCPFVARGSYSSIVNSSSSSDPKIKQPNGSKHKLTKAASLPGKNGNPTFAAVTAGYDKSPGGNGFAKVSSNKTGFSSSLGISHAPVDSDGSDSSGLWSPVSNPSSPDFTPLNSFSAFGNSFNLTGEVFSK

TRAPPC8 C-terminal region, prey cDNA clone a.a. 1002-1063 (from UniProt Q9Y2L5 1002-1063) (domain or fragment)
binding [1]: binds | binding [2]: binds | binding [3]: no binding
